Data published in patent publication US12414978B2, “Tyrosine inhibitors with immunosuppressive activity in human neonatal keratinocyte progenitors” (ESCAPE THERAPEUTICS, INC., priority 2019, dated 2025).
Not every detail of the peptide structures is certain; ends, links or a residue may be inferred. Ends that are not written are not given here.

Assays:
[1] = patients with dyschromia, topical cream containing 0.01 percent of decapeptide-12 twice daily for 8 weeks; cited from earlier work
PHA-stimulated PBMC = PHA-stimulated PBMC proliferation; assay type: cell-based, human; settings: PHA 72 hours
Experimental: (§1) Cryopreserved human PBMCs were purchased from Astarte Biologics (Redmond, Washington, USA), activated with phytohemagglutinin (PHA), and proliferation assessed. Interleukin (IL)-2 activated human NK cell cytotoxic killing of human K562 cells was assessed using a CytoTox96 non-radioactive cytotoxicity assay kit (Promega). Protease inhibitor was added to the media to prevent degradation of decapeptide-12.
(§2) Three independent trials were performed for each experiment. Microsoft Excel (Seattle, Washington) was used to calculate means and standard errors and statistical significance was determined using unpaired analysis of variance or two-tailed student T-test. P values <0.05 were taken to be statistically significant.
The effects of decapeptide-12 and oxyresveratrol on PBMC proliferation rates after exposure to PHA for 72 hours, were explored.

[2] = test system: human epidermal progenitors; test: MTT cell proliferation, epidermal progenitors; assay type: cell-based
Experimental: Proliferation rates were determined using a TACS® MTT Cell Proliferation Kit (R&D systems, Minneapolis, MN). Cells were seeded at 2.5×10^4 per well in 96-well plates in a humidified atmosphere with 5 percent CO2 at 37 degrees Celsius. Twenty-four hours later, decapeptide-12 or oxyresveratrol were added to the corresponding wells at varying concentrations (0, 3, 10, 30, 100, 300, and 1000 micromolar), and cultures were then incubated for 72 hours. The remainder of the procedure was performed following the manufacturer's protocol.
(§3) Proliferation rates for three human cell lines (epidermal progenitors, melanoblasts, and fibroblasts) were determined using a TACS® MTT Cell Proliferation Kit. Cells were seeded at 2.5×10^4 per well in 96-well plates in a humidified atmosphere with 5 percent CO2 at 37 degrees Celsius. Twenty-four hours later, the decapeptides were added to the corresponding wells at varying concentrations and incubated for 72 hours. The remainder of the procedure was performed following the manufacturer's protocol.

melanoblasts = test: MTT cell proliferation, melanoblasts; assay type: cell-based, human
Experimental: as §3

fibroblasts = test: MTT cell proliferation, fibroblasts; assay type: cell-based, human
Experimental: as §3

[3] = test system: IL-2 activated human NK cell cytotoxic killing of human K562 cells; test: NK cytotoxic killing of K562 cells (CytoTox96); assay type: cell-based
Experimental: as §1, §2
The impact of decapeptide-12 on IL-2 primed NK-mediated cytotoxic killing of K562 cells, was also assessed.

Sequence: YRSRKYSSWY [P4, YRSRKYSSWY]
- facial skin appearance [1]: overall improvement
- reduction of PHA-stimulated PBMC proliferation (PHA-stimulated PBMC; 0.05 millimolar): 28.0±3.8%
- reduction of PHA-stimulated PBMC proliferation (PHA-stimulated PBMC; 0.1 millimolar): 54.3±1.1%
- reduction of PHA-stimulated PBMC proliferation (PHA-stimulated PBMC; 0.3 millimolar): No significant additional reduction
- reduction of PHA-stimulated PBMC proliferation (PHA-stimulated PBMC; 1 millimolar): No significant additional reduction
- epidermal progenitor proliferation rate after 72 hours ([2]; 3 μM): 100%
- epidermal progenitor proliferation rate after 72 hours ([2]; 10 μM): 99 ± 1%
- epidermal progenitor proliferation rate after 72 hours ([2]; 30 μM): 98 ± 1%
- epidermal progenitor proliferation rate after 72 hours ([2]; 50 μM): 97 ± 1%
- epidermal progenitor proliferation rate after 72 hours ([2]; 100 μM): 97 ± 1%
- epidermal progenitor proliferation rate after 72 hours ([2]; 300 μM): 96 ± 1%
- epidermal progenitor proliferation rate after 72 hours ([2]; 500 μM): 96 ± 2%
- epidermal progenitor proliferation rate after 72 hours ([2]; 1000 μM): 94 ± 2%
- reduction in proliferation ([2]; 1 millimolar (1000 micromolar), 72 hours, epidermal progenitors): 3±2%
- melanoblast proliferation rate after 72 hours (melanoblasts; 3 μM): 100%
- melanoblast proliferation rate after 72 hours (melanoblasts; 10 μM): 100%
- melanoblast proliferation rate after 72 hours (melanoblasts; 30 μM): 99 ± 1%
- melanoblast proliferation rate after 72 hours (melanoblasts; 50 μM): 98 ± 1%
- melanoblast proliferation rate after 72 hours (melanoblasts; 100 μM): 97 ± 1%
- melanoblast proliferation rate after 72 hours (melanoblasts; 300 μM): 97 ± 1%
- melanoblast proliferation rate after 72 hours (melanoblasts; 500 μM): 95 ± 2%
- melanoblast proliferation rate after 72 hours (melanoblasts; 1000 μM): 95 ± 2%
- fibroblast proliferation rate after 72 hours (fibroblasts; 3 μM): 100%
- fibroblast proliferation rate after 72 hours (fibroblasts; 10 μM): 99 ± 1%
- fibroblast proliferation rate after 72 hours (fibroblasts; 30 μM): 99 ± 1%
- fibroblast proliferation rate after 72 hours (fibroblasts; 50 μM): 98 ± 1%
- fibroblast proliferation rate after 72 hours (fibroblasts; 100 μM): 97 ± 1%
- fibroblast proliferation rate after 72 hours (fibroblasts; 300 μM): 97 ± 1%
- fibroblast proliferation rate after 72 hours (fibroblasts; 500 μM): 97 ± 2%
- fibroblast proliferation rate after 72 hours (fibroblasts; 1000 μM): 96 ± 2%
- reduction of NK killing of K562 cells ([3]; 0.1 millimolar, E:T ratio 10:1): 81.4±1.3%
- reduction of NK killing of K562 cells ([3]; 0.1 millimolar, E:T ratio 30:1): 64.8±5.3%
- reduction of NK killing of K562 cells ([3]; 0.3 millimolar, E:T ratio 10:1): 59.3±3.6%
- reduction of NK killing of K562 cells ([3]; 0.3 millimolar, E:T ratio 30:1): 44.8±3.2%
